Reference: patent US8183272B2, “Indanyl compounds” (Daiichi Sankyo Company, Limited, priority 2008, dated 2012)
Some results were stated once for a whole list of compounds, not compound by compound.

Test system: PTH secretion
Assay: Evaluation of PTH secretion promoting activity in rat (blood serum PTH, ELISA)
Format: in vivo
Conditions: female F344 rat, oral 3 mg/5 mL/kg; for blood serum PTH concentration at 15 minutes to 30 minutes: 15 to 30 minutes
Protocol: Evaluation of PTH Secretion Promoting Activity in Rat
A 10 to 14-week old female F344 rat (Charles River Japan, Inc.) fasted overnight was anesthetized using ether, and blood serum before the administration was prepared by drawing blood from the jugular vein of the animal. Subsequently, the test compound was orally administered at a dose of 3 mg/5 mL/kg using a solvent (0.5% aqueous methyl cellulose solution containing 5% DMA). Blood was drawn from the jugular vein under ether anesthesia at 5, 15, 30, 60, 120, and 240 minutes after the administration of the test compound, and the blood serum was prepared. The blood serum PTH concentration was measured using rat Intact PTH ELISA kit (manufactured by Immutopics, Inc.).

SMILES	blood serum PTH concentration at 15 minutes to 30 minutes [pg/mL]	blood serum PTH concentration after 240 minutes [pg/mL]
C[C@@H](OC[C@H](O)CNC(C)(C)CC1Cc2ccccc2C1)c1ccccc1CCCC(=O)O [Example 2, 4-{2-[(1R)-1-{[(2R)-3-{[1-(2,3-Dihydro-1H-inden-2-yl)-2-methylpropan-2-yl]amino}-2-hydroxypropyl]oxy}ethyl]phenyl}butanoic acid]	≥ 400	≤ 200
C[C@@H](OC[C@H](O)CNC(C)(C)CC1Cc2ccccc2C1)c1cc(F)cc(F)c1CCC(=O)O [Example 27]	≥ 400	≤ 200
CC[C@@H](OC[C@H](O)CNC(C)(C)CC1Cc2ccccc2C1)c1cccc(Cl)c1CCC(=O)O [Example 75]	≥ 400	≤ 200
CC(C)(CC1Cc2ccccc2C1)NC[C@@H](O)CO[C@@H](c1ccccc1CCC(=O)O)C1CC1 [Example 29]	≥ 400	≤ 200
CC[C@@H](OC[C@H](O)CNC(C)(C)CC1Cc2ccccc2C1)c1cc(F)c(C)cc1CCCCC(=O)O [Example 61]	≥ 400	≤ 200
Cc1ccc(CCCCC(=O)O)c([C@@H](C)OC[C@H](O)CNC(C)(C)CC2Cc3ccccc3C2)c1 [Example 46]	≥ 400	≤ 200
Cc1cccc([C@@H](C)OC[C@H](O)CNC(C)(C)CC2Cc3ccccc3C2)c1CCC(=O)O [Example 42]	≥ 400	≤ 200
CCOc1cccc([C@@H](C)OC[C@H](O)CNC(C)(C)CC2Cc3ccccc3C2)c1CCC(=O)O [Example 62]	≥ 400	≤ 200
C[C@@H](OC[C@H](O)CNC(C)(C)CC1Cc2ccccc2C1)c1cccc(F)c1CCC(=O)O [Example 7, 3-{2-[(1R)-1-{[(2R)-3-{[1-(2,3-Dihydro-1H-inden-2-yl)-2-methylpropan-2-yl]amino}-2-hydroxypropyl]oxy}ethyl]-6-fluorophenyl}propanoic acid]	≥ 400	≤ 200
C[C@@H](OC[C@H](O)CNC(C)(C)CC1Cc2ccccc2C1)c1cc(F)ccc1CCC(=O)O [Example 9, 3-{2-[(1R)-1-{[(2R)-3-{[1-(2,3-Dihydro-1H-inden-2-yl)-2-methylpropan-2-yl]amino}-2-hydroxypropyl]oxy}ethyl]-4-fluorophenyl}propanoic acid]	≥ 400	≤ 200
Cc1cccc([C@@H](C)OC[C@H](O)CNC(C)(C)CC2Cc3ccccc3C2)c1CCCCC(=O)O [Example 47]	≥ 400	≤ 200
C[C@@H](OC[C@H](O)CNC(C)(C)CC1Cc2ccccc2C1)c1cccc(Cl)c1CCC(=O)O [Example 71]	≥ 400	≤ 200
CC[C@@H](OC[C@H](O)CNC(C)(C)CC1Cc2ccccc2C1)c1cc(Cl)ccc1CCC(=O)O [Example 73]	≥ 400	≤ 200
Cc1ccc([C@@H](C)OC[C@H](O)CNC(C)(C)CC2Cc3ccccc3C2)c(CCC(=O)O)c1 [Example 5, 3-{2-[(1R)-1-{[(2R)-3-{[1-(2,3-Dihydro-1H-inden-2-yl)-2-methylpropan-2-yl]amino}-2-hydroxypropyl]oxy}ethyl]-5-methylphenyl}propanoic acid]	≥ 400	≤ 200
C[C@@H](OC[C@H](O)CNC(C)(C)CC1Cc2ccccc2C1)c1cccc(OC(F)F)c1CCC(=O)O [Example 66]	≥ 400	≤ 200
C[C@@H](OC[C@H](O)CNC(C)(C)CC1Cc2ccccc2C1)c1ccc(C(F)(F)F)cc1CCC(=O)O [Example 11, 3-{2-[(1R)-1-{[(2R)-3-{[1-(2,3-Dihydro-1H-inden-2-yl)-2-methylpropan-2-yl]amino}-2-hydroxypropyl]oxy}ethyl]-5-(trifluoromethyl)phenyl}propanoic acid]	≥ 400	≤ 200
C[C@@H](OC[C@H](O)CNC(C)(C)CC1Cc2ccccc2C1)c1ccccc1CCC(=O)O [Example 1, 3-{2-[(1R)-1-{[(2R)-3-{[1-(2,3-Dihydro-1H-inden-2-yl)-2-methylpropan-2-yl]amino}-2-hydroxypropyl]oxy}ethyl]phenyl}propanoic acid]	≥ 400	≤ 200
C[C@@H](OC[C@H](O)CNC(C)(C)CC1Cc2ccccc2C1)c1ccc(Cl)cc1CCC(=O)O [Example 69]	≥ 400	≤ 200

SMILES	blood serum PTH concentration at 15 minutes to 30 minutes [pg/mL]	blood serum PTH concentration after 240 minutes [pg/mL]
CC[C@@H](OC[C@H](O)CNC(C)(C)CC1Cc2ccccc2C1)c1cccc(F)c1CCC(=O)O [Example 39]	≥ 400	≤ 200
CCC[C@@H](OC[C@H](O)CNC(C)(C)CC1Cc2ccccc2C1)c1cccc(C)c1CCC(=O)O [Example 52]	≥ 400	≤ 200
Cc1cc(CCC(=O)O)c([C@@H](C)OC[C@H](O)CNC(C)(C)CC2Cc3ccccc3C2)cc1F [Example 22]	≥ 400	≤ 200
C[C@@H](OC[C@H](O)CNC(C)(C)CC1Cc2ccccc2C1)c1cccc(F)c1CCCCC(=O)O [Example 48]	≥ 400	≤ 200
C[C@@H](OC[C@H](O)CNC(C)(C)CC1Cc2ccccc2C1)c1ccccc1CCCCCC(=O)O [Example 67]	≥ 400	≤ 200
Cc1cc(CCCCC(=O)O)c([C@@H](C)OC[C@H](O)CNC(C)(C)CC2Cc3ccccc3C2)cc1F [Example 23]	≥ 400	≤ 200
C[C@@H](OC[C@H](O)CNC(C)(C)CC1Cc2ccccc2C1)c1ccc(F)cc1CCC(=O)O [Example 8, 3-{2-[(1R)-1-{[(2R)-3-{[1-(2,3-Dihydro-1H-inden-2-yl)-2-methylpropan-2-yl]amino}-2-hydroxypropyl]oxy}ethyl]-5-fluorophenyl}propanoic acid]	≥ 400	≤ 200
CC[C@@H](OC[C@H](O)CNC(C)(C)CC1Cc2ccccc2C1)c1cccc(OC)c1CCC(=O)O [Example 41]	≥ 400	≤ 200
COc1cccc([C@@H](C)OC[C@H](O)CNC(C)(C)CC2Cc3ccccc3C2)c1CCCCC(=O)O [Example 37]	≥ 400	≤ 200
CCC[C@@H](OC[C@H](O)CNC(C)(C)CC1Cc2ccccc2C1)c1ccccc1CCC(=O)O [Example 21]	≥ 400	≤ 200
C[C@@H](OC[C@H](O)CNC(C)(C)CC1Cc2ccccc2C1)c1cc(Cl)ccc1CCC(=O)O [Example 70]	≥ 400	≤ 200
COc1cccc([C@@H](C)OC[C@H](O)CNC(C)(C)CC2Cc3ccccc3C2)c1CCC(=O)O [Example 17]	≥ 400	≤ 200
CC(OC[C@H](O)CNC(C)(C)CC1Cc2ccccc2C1)c1c(Cl)cccc1CCC(=O)O (stereo partly drawn) [Example 33]	≥ 400	≤ 200
CCC[C@@H](OC[C@H](O)CNC(C)(C)CC1Cc2ccccc2C1)c1cc(Cl)ccc1CCC(=O)O [Example 76]	≥ 400	≤ 200
CC[C@@H](OC[C@H](O)CNC(C)(C)CC1Cc2ccccc2C1)c1cc(F)ccc1CCC(=O)O [Example 38]	≥ 400	≤ 200
C[C@@H](OC[C@H](O)CNC(C)(C)CC1Cc2ccccc2C1)c1ccccc1CCCCC(=O)O [Example 13, 5-{2-[(1R)-1-{[(2R)-3-{[1-(2,3-Dihydro-1H-inden-2-yl)-2-methylpropan-2-yl]amino}-2-hydroxypropyl]oxy}ethyl]phenyl}pentanoic acid]	≥ 400	≤ 200
CCC[C@@H](OC[C@H](O)CNC(C)(C)CC1Cc2ccccc2C1)c1cccc(Cl)c1CCC(=O)O [Example 78]	≥ 400	≤ 200
CC[C@@H](OC[C@H](O)CNC(C)(C)CC1Cc2ccccc2C1)c1ccccc1CCC(=O)O [Example 18]	≥ 400	≤ 200
